For this test, the target named is T1, Praja1 (PJA1), mouse (mouse (endogenous in hippocampus)) (UniProt O55176).
T1 sequence: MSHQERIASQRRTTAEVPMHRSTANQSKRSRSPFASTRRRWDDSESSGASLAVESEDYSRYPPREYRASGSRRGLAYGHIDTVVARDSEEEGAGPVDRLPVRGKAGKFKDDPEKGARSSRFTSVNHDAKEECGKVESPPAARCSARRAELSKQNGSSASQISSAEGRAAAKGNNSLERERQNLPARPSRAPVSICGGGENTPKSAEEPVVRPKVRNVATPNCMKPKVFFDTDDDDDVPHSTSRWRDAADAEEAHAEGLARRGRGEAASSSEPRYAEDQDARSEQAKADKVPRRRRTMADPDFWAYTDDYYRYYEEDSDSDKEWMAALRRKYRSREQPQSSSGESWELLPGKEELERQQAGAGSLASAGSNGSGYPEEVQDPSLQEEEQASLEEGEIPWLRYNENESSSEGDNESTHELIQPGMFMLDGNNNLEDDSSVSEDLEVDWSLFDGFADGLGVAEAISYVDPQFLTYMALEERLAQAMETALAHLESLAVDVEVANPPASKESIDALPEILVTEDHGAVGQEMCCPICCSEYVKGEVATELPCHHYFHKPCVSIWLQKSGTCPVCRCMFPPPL
Briefly: affinity purification with mass spectrometry; IP from hippocampal lysate (NP-40 lysis buffer) with an anti-PJA1 antibody, protein A/G magnetic agarose beads, LC-MS/MS of the bound proteins.

Chains of the proteins cited; added tags and fusions are not shown. Residues count along the entry.
UniProt Q91WP6, residues 21-418: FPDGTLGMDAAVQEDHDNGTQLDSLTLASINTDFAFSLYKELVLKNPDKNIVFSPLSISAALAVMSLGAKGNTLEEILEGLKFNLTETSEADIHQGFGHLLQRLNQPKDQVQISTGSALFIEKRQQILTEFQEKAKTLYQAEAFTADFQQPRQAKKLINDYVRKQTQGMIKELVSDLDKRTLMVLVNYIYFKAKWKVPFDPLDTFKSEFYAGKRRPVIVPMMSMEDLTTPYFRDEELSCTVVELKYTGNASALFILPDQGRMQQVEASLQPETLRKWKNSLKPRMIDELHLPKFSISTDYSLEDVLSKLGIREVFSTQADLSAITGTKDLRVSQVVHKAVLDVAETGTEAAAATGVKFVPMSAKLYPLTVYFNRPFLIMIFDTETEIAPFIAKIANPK

No constants are given. Whether binding was seen depends on the method and setting. Binding seen in cells or lysates may run through a third protein. These calls come from enrichment with a bait or labelling near it, and not all partners need be listed.

As to “Serine peptidase inhibitor clade A member 3N (Serpina3n) (from UniProt Q91WP6 21-418)”, the binding entry is on record as “binds”.

B1: GFM2 (ribosome-releasing factor 2, mitochondrial) (protein, UniProt Q8R2Q4 1-779)
chain: MFTKWRIFAVNHQRTFSVHLNTMCYCKIKANLKRLKTQLPLTRNYSSAPGIAGSDVKSLHSVINPPVAKIRNIGIMAHIDAGKTTTTERILYYSGYTRSLGDVDDGDTVTDFMAQERERGITIQSAAVTLDWKGYRVNLIDTPGHVDFTLEVERCLRVLDGAVAVFDASAGVEAQTLTVWRQADKHKIPRICFLNKMDKTGASFNYAVESIREKLKAKPLILQLPIGEARTFQGVVDVVNKEKLLWNSNSDDGKDFERMPLSEASDRELLKETIEARNSLIEQVADLDDEFADLVLGEFSENFDLVPAEKLQAAVHRVTLAQAAVPVLCGSALKNKGVQPLLDAVTTYLPSPEEREDRFLQWYEGDLCALAFKVLHDKQRGPLVFLRIYSGTLTPQLAVHNINRNCTERMSRLLLPFADQHVEIPSLTAGNIALTVGLKQTATGDTIVSSKSSALAAARRAGRGEREHGKKREAESLLLAGVEVPEPVFFCTIEPPSVAKQPDLDHALERLQREDPSLKVKLDPDSGQTVLCGMGELHIEIIHDRIKREYGLETYLGPLQVAYRETILNSVRATDTLDRVLGDKRHLVSAELEVRPAEEPCAVAKIEYADCVGEDLLQASREAIESAVHSACLQGPLLGSPVQDVAMTLHSLMIHPGTSTTMVTACISRCMQKALKKADKQVLEPLMSLEVTVSREYLSPVLADLAQRRGNIQEIQTRQDNRVVLGFVPLAEIMGYSTVLRTLTSGSATFALELSTYQAMSPQDQSALLNQRSGLAHVL
Regarding B1, the binding entry is “binds”.
